This is one part of the list.
Tests used:
Assay in all cases: log2 fold change, soluble protein after heating vs DMSO (PISA); higher = thermal stabilisation; K562 cells, 10 uM, 30 min; active = over 0.2 and 3.5 SD of the protein, either way, in both replicates (recomputed)
saracatinib = compound: CN1CCN(CCOc2cc(OC3CCOCC3)c3c(Nc4c(Cl)ccc5c4OCO5)ncnc3c2)CC1 [saracatinib]
Summary of the method: (§1)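 For each measurement, 10 μM compound was applied for 30 min to K562 cells at 2×10^6 cells/mL. Aliquots were heated for 3 min across 48°C-58°C, pooled, and extracted in PBS with 0.5% NP-40 at 4°C; the supernatant after 21,000xg for 90 min was soluble protein. This was quantified by TMTpro 16plex LC-MS/MS with channel sums equalised, and thermal stability was reported relative to control samples from duplicates, on a log2 fold-change scale.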

The chains behind the UniProt entries cited, without tags or fusion partners. Where a name states a change or a piece, a line headed by the entry shows the natural chain unless it says otherwise.
UniProt Q9UNK0: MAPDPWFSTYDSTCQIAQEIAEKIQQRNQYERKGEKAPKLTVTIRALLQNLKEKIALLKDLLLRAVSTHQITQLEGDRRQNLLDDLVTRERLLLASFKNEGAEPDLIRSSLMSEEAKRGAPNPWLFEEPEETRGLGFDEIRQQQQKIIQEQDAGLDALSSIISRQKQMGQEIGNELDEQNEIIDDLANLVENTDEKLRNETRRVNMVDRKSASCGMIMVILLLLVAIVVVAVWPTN
UniProt O15260: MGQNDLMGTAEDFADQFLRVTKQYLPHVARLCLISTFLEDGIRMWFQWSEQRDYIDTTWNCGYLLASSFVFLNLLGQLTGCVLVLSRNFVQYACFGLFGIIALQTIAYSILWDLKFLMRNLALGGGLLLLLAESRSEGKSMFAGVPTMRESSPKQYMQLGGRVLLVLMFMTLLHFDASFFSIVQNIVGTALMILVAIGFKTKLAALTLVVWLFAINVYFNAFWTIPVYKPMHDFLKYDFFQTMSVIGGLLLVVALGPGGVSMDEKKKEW
UniProt A2RTX5: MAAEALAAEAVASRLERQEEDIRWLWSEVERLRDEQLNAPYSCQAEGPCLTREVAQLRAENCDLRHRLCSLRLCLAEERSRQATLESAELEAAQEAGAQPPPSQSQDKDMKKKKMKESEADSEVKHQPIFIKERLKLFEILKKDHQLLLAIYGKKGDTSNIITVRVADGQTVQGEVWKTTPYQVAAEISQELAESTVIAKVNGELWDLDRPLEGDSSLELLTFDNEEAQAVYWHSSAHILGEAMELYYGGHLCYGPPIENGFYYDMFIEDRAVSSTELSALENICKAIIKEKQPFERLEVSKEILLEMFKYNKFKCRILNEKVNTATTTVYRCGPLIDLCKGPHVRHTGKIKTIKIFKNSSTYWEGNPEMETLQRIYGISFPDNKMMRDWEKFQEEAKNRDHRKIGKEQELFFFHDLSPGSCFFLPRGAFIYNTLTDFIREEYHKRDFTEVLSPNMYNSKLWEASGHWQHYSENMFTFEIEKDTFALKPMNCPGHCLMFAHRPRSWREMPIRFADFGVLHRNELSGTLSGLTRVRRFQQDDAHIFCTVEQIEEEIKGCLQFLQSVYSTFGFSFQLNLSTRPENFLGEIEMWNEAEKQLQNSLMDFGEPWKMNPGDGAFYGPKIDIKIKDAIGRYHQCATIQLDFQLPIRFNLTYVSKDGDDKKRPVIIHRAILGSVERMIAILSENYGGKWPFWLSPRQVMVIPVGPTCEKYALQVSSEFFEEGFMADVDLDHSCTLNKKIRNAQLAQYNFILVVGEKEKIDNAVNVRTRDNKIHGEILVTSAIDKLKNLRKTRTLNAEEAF
UniProt P50225: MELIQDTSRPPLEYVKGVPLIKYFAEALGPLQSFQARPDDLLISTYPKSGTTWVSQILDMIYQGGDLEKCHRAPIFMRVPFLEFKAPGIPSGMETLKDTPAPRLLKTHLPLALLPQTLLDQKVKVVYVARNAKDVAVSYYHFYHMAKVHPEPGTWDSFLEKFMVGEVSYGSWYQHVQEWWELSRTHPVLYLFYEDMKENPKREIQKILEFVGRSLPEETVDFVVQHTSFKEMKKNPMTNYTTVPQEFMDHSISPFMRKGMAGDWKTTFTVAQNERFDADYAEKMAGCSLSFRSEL
UniProt Q92797: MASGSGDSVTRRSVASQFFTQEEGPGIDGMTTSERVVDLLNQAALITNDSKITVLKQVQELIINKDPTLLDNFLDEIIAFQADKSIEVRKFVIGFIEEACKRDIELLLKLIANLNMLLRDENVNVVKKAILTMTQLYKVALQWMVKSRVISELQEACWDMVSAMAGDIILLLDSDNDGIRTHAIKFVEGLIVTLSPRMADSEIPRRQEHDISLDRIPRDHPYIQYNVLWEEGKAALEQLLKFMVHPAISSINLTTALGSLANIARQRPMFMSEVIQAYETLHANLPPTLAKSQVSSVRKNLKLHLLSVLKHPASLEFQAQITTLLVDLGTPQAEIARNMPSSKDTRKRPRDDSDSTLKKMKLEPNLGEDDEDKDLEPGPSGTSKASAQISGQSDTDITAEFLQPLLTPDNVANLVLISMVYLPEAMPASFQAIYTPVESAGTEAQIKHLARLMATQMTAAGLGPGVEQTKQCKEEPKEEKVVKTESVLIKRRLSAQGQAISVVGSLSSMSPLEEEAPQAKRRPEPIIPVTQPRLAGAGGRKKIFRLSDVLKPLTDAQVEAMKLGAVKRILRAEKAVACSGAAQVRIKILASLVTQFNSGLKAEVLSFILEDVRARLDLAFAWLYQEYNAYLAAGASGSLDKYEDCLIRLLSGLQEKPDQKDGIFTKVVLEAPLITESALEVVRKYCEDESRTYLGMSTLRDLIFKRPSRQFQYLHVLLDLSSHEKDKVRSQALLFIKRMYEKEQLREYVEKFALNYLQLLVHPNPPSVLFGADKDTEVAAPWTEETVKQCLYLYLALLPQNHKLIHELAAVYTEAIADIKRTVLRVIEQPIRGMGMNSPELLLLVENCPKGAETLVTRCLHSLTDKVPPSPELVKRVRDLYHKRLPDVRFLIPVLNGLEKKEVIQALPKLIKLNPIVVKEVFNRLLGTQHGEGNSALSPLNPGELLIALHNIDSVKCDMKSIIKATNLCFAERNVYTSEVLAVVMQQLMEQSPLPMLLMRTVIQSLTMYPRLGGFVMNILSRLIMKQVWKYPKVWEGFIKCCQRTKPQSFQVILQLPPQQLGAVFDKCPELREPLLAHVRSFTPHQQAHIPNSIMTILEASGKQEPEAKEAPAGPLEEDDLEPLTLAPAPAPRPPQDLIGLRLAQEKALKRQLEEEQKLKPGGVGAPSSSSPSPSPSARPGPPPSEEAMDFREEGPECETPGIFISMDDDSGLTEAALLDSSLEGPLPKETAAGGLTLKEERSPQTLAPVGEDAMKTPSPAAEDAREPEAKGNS
UniProt Q9Y5B9, whole entry, looked up: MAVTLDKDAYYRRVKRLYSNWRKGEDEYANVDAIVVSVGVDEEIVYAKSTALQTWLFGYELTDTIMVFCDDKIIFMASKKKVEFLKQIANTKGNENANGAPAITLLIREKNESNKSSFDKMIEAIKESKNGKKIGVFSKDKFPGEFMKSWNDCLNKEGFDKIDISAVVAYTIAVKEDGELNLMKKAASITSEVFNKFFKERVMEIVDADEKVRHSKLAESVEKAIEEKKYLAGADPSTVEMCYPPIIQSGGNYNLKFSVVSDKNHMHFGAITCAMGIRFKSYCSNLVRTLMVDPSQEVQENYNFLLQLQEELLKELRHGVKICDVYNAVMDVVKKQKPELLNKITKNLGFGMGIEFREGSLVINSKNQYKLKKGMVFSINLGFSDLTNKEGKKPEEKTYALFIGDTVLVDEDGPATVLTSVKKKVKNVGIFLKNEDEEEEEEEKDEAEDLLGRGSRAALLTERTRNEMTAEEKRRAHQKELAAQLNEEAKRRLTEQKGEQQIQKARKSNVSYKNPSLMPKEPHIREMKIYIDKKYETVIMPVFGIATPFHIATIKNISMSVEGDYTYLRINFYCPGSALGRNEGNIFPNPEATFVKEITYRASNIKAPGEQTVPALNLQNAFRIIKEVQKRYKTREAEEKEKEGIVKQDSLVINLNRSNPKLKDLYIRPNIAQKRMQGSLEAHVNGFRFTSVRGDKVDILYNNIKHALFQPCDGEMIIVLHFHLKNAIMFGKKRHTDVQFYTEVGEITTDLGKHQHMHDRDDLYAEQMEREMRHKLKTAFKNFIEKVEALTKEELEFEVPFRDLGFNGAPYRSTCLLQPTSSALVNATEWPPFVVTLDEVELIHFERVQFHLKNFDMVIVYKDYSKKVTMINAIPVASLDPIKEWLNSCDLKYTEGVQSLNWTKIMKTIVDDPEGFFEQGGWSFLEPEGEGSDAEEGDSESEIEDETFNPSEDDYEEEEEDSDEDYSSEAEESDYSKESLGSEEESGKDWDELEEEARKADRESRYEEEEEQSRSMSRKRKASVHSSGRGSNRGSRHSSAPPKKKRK
UniProt O43815: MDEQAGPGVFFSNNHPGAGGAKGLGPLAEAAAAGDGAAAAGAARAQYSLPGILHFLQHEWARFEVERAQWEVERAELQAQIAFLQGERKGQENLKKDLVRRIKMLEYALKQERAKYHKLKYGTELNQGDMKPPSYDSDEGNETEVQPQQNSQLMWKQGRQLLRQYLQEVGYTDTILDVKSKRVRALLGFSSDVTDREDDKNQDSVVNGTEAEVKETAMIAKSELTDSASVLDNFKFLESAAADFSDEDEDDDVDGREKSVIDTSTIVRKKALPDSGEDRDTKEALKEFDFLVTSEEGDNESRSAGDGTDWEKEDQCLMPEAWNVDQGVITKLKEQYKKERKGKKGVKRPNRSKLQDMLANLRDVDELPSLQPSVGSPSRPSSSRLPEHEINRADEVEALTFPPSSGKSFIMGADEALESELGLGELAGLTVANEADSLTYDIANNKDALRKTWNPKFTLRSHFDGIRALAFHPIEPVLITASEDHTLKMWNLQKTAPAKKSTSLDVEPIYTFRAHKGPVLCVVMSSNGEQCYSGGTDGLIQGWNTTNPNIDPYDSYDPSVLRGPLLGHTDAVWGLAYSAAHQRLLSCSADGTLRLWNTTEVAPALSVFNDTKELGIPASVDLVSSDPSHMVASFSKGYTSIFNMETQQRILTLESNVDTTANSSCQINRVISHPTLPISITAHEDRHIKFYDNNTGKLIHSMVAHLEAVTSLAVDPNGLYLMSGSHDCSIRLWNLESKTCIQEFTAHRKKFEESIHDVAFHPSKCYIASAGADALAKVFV

sotrastaurin = compound: CN1CCN(c2nc(C3=C(c4c[nH]c5ccccc45)C(=O)NC3=O)c3ccccc3n2)CC1 [sotrastaurin]
Summary of the method: as §1

alvocidib = compound: CN1CC[C@H](c2c(O)cc(O)c3c(=O)cc(-c4ccccc4Cl)oc23)[C@H](O)C1 [alvocidib]
Summary of the method: as §1

Tubastatin A = compound: CN1CCc2c(c3ccccc3n2Cc2ccc(C(=O)NO)cc2)C1 [Tubastatin A]
Summary of the method: as §1

[1] = compound: CNC(=O)C1=CC=CC=C1NC2=NC(=NC=C2Cl)NC3=C(C=C(C=C3)N4CCOCC4)OC
Summary of the method: as §1

defactinib = compound: CNC(=O)c1ccc(Nc2ncc(C(F)(F)F)c(NCc3nccnc3N(C)S(C)(=O)=O)n2)cc1 [defactinib]
Summary of the method: as §1

rucaparib = compound: CNCc1ccc(-c2[nH]c3cc(F)cc4c3c2CCNC4=O)cc1 [rucaparib]
Summary of the method: as §1

[2] = compound: CNc1nc(-c2ccc3c(N)n[nH]c3c2)cc(N2C[C@@H](C(=O)NC3CCCCC3)CC[C@H]2C)n1
Summary of the method: as §1

encorafenib = compound: COC(=O)N[C@@H](C)CNc1nccc(-c2cn(C(C)C)nc2-c2cc(Cl)cc(NS(C)(=O)=O)c2F)n1 [encorafenib]
Summary of the method: as §1

[3] = compound: COC(=O)[C@H](CCSC)NC(=O)C1=C(C=C(C=C1)NC[C@H](CS)N)C2=CC=CC=C2
Summary of the method: as §1

[4] = compound: COC1=CC=C(C=C1)CN2C=CC3=C2C=C(C=C3)C(=O)NO
Summary of the method: as §1

filanesib = compound: CON(C)C(=O)N1N=C(c2cc(F)ccc2F)S[C@@]1(CCCN)c1ccccc1 [filanesib]
Summary of the method: as §1

zotarolimus = compound: CO[C@H]1C[C@@H]2CC[C@@H](C)[C@@](O)(O2)C(=O)C(=O)N2CCCC[C@H]2C(=O)O[C@H]([C@H](C)C[C@@H]2CC[C@H](n3cnnn3)[C@H](OC)C2)CC(=O)[C@H](C)/C=C(\C)[C@@H](O)[C@@H](OC)C(=O)[C@H](C)C[C@H](C)/C=C/C=C/C=C/1C [zotarolimus]
Summary of the method: as §1

idasanutlin = compound: COc1cc(C(=O)O)ccc1NC(=O)[C@@H]1N[C@@H](CC(C)(C)C)[C@](C#N)(c2ccc(Cl)cc2F)[C@H]1c1cccc(Cl)c1F [idasanutlin]
Summary of the method: as §1

alisertib = compound: COc1cc(Nc2ncc3c(n2)-c2ccc(Cl)cc2C(c2c(F)cccc2OC)=NC3)ccc1C(=O)O [alisertib]
Summary of the method: as §1

[5] = compound: COc1cc2nc(-c3cc(F)ccc3O)nc(N[C@@H]3CNC[C@H]3C(C)(C)O)c2cc1OC
Summary of the method: as §1

gefitinib = compound: COc1cc2ncnc(Nc3ccc(F)c(Cl)c3)c2cc1OCCCN1CCOCC1 [gefitinib]
Summary of the method: as §1

[6] = compound: COc1cccc2cc(-c3nc([C@H]4CC[C@H](C(=O)O)CC4)n4ncnc(N)c34)[nH]c12
Summary of the method: as §1

lapatinib = compound: CS(=O)(=O)CCNCc1ccc(-c2ccc3ncnc(Nc4ccc(OCc5cccc(F)c5)c(Cl)c4)c3c2)o1 [lapatinib]
Summary of the method: as §1

pictilisib = compound: CS(=O)(=O)N1CCN(Cc2cc3nc(-c4cccc5[nH]ncc45)nc(N4CCOCC4)c3s2)CC1 [pictilisib]
Summary of the method: as §1

Row | Target | log2 fold change (saracatinib) | log2 fold change (sotrastaurin) | log2 fold change (alvocidib) | log2 fold change (Tubastatin A) | log2 fold change [1] | log2 fold change (defactinib) | log2 fold change (rucaparib) | log2 fold change [2] | log2 fold change (encorafenib) | log2 fold change [3] | log2 fold change [4] | log2 fold change (filanesib) | log2 fold change (zotarolimus) | log2 fold change (idasanutlin) | log2 fold change (alisertib) | log2 fold change [5] | log2 fold change (gefitinib) | log2 fold change [6] | log2 fold change (lapatinib) | log2 fold change (pictilisib)
1 | TACC3 (UniProt Q9Y6A5) | inactive: -0.001 | inactive: 0.005 | inactive: -0.007 | inactive: -0.003 | inactive: 0.017 | inactive: 0.003 | inactive: -0.028 | inactive: -0.03 | inactive: -0.003 | inactive: 0.021 | inactive: 0.02 | inactive: 0.002 | inactive: 0.004 | inactive: -0.023 | inactive: -0.048 | inactive: 0.041 | inactive: -0.004 | inactive: -0.009 | inactive: -0.039 | inactive: 0.082
2 | STX8 (UniProt Q9UNK0) | inactive: 0.103 | inactive: 0.048 | inactive: 0.098 | inactive: -0.045 | inactive: 0.015 | inactive: 0.004 | inactive: -0.002 | inactive: -0.056 | inactive: -0.005 | inactive: 0.027 | inactive: -0.04 | inactive: 0.018 | inactive: -0.088 | inactive: 0.082 | inactive: -0.048 | inactive: -0.008 | inactive: -0.022 | inactive: 0.065 | inactive: -0.021 | inactive: -0.018
3 | SURF4 (UniProt O15260) | inactive: 0.062 | inactive: 0.007 | inactive: -0.005 | inactive: -0.067 | inactive: -0.032 | inactive: -0.03 | inactive: -0.028 | inactive: -0.028 | inactive: -0.003 | inactive: 0.027 | inactive: -0.056 | inactive: -0.036 | inactive: -0.005 | inactive: -0.016 | inactive: -0.139 | inactive: -0.074 | inactive: 0.018 | inactive: 0.066 | inactive: -0.069 | inactive: -0.004
4 | TARSL2 (UniProt A2RTX5) | inactive: -0.008 | inactive: 0.002 | inactive: -0.045 | inactive: -0.003 | inactive: -0.045 | inactive: -0.007 | inactive: -0.023 | inactive: 0.009 | inactive: 0.037 | inactive: 0.007 | inactive: -0.029 | inactive: -0.096 | inactive: 0.068 | inactive: 0.008 | inactive: -0.031 | inactive: -0.007 | inactive: 0.009 | inactive: 0.023 | inactive: -0.017 | inactive: 0.021
5 | SULT1A1 (UniProt P50225) | inactive: 0.052 | inactive: -0.03 |  | inactive: -0.004 | inactive: 0.105 | inactive: -0.214 | inactive: -0.048 | inactive: 0.05 | inactive: 0.084 | inactive: -0.125 | inactive: 0.161 | inactive: 0.034 | inactive: 0.042 | inactive: -0.02 | inactive: 0.056 | inactive: 0.046 | inactive: 0.062 | inactive: -0.03 | inactive: 0.026 | inactive: 0.138
6 | SYMPK (UniProt Q92797) | inactive: -0.058 | inactive: -0.205 |  | inactive: 0.258 | inactive: 0.008 | inactive: -0.245 | inactive: 0.09 | inactive: 0.007 | inactive: 0.079 | inactive: -0.022 | inactive: 0.069 | inactive: -0.102 | inactive: 0.07 | inactive: -0.127 | inactive: 0.047 | inactive: 0.036 | inactive: 0.107 | inactive: 0.025 | inactive: -0.045 | inactive: 0.155
7 | SUPT16H (UniProt Q9Y5B9) | inactive: -0.125 | inactive: -0.209 |  | inactive: 0.374 | inactive: 0.034 | active: -0.476 | inactive: -0.104 | inactive: 0.024 | inactive: 0.113 | inactive: -0.138 | inactive: 0.106 | inactive: -0.026 | inactive: 0.104 | inactive: -0.057 | inactive: 0.12 | inactive: -0.036 | inactive: 0.062 | inactive: -0.023 | inactive: 0.035 | inactive: 0.011
8 | STRN (UniProt O43815) | inactive: 0.022 | inactive: 0.026 |  | inactive: 0.013 | inactive: -0.007 | inactive: -0.076 | inactive: -0.007 | inactive: -0.026 | inactive: 0.017 | inactive: -0.017 | inactive: -0.002 | inactive: -0.002 | inactive: 0.052 | inactive: -0.018 | inactive: -0.083 | inactive: -0.003 | inactive: 0.02 | inactive: 0.017 | inactive: 0.015 | inactive: 0.006

From the supplement of paper PMC10849652
